For this test, the target named is FLAG-tagged D2R construct with the biotin ligase acceptor peptide insertion into the 3rd cytoplasmic loop (D2R-AP) (human) (UniProt P14416). Put plainly: proximity labelling; in-cell proximity biotin transfer: D2R-AP coexpressed with a BirA fusion in HEK293 cells in biotin-free medium; 10 µM biotin for 2 min at 25°C on intact cells; lysis in cold 2% TX100, soluble and insoluble fractions blotted with streptavidin-HRP.

Amino acid sequences for entries named in this document (tags omitted). A change or cut given only in a name is not applied to a line headed by its entry. Residues count along the entry.
UniProt P14416: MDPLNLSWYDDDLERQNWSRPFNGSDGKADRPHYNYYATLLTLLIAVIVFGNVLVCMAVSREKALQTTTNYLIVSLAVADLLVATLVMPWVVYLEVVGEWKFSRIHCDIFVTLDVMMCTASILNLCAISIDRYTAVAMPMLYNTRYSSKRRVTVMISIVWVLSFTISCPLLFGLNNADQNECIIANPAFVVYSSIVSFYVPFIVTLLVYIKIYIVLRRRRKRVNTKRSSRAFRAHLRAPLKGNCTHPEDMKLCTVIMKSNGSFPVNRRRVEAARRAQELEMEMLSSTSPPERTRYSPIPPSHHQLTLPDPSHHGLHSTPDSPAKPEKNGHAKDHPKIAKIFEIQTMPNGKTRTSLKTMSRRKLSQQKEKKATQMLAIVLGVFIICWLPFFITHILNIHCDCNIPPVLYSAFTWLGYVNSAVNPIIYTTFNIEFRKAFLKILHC
UniProt O14775, residues 43-395: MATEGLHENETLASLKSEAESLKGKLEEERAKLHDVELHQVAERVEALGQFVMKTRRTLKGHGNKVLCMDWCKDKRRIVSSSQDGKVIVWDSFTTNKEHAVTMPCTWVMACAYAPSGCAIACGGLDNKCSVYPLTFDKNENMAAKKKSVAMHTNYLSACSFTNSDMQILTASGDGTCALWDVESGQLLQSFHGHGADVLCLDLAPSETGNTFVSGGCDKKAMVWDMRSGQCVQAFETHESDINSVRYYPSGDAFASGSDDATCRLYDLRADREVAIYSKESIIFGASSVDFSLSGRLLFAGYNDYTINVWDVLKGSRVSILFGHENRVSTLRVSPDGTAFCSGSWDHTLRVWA

These are yes or no findings as the source states them, for the method shown. In cells and extracts the contact can be indirect. A yes stands for co-enrichment or nearness to the bait. Other partners may have been found.

As to “G protein beta 5-biotin ligase fusion (Gβ5-BL) (from UniProt O14775-2 1-353)”, the binding result is “binds”.

Values taken from article PMC4146516.
